Data as given in patent US20210395356A1 (Chugai, published 2021).
No constants are given. Whether binding was seen depends on the method and setting. Some results given as binding are weak or reduced against the parent protein; the word gives no strength.

Protein sequences, listed by entry. Tags and fused reporters are not part of them. Residues count along the entry.
UniProt P01137, residues 30-390: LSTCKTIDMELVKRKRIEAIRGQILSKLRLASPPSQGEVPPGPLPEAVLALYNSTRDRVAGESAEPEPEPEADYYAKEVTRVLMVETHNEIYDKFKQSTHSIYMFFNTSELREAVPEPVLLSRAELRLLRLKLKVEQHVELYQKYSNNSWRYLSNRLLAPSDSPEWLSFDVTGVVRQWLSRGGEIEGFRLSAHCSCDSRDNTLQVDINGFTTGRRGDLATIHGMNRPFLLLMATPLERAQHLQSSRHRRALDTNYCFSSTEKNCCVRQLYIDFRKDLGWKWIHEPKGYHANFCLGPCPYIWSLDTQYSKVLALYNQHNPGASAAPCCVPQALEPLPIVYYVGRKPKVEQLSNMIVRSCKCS
UniProt P04202, residues 30-390: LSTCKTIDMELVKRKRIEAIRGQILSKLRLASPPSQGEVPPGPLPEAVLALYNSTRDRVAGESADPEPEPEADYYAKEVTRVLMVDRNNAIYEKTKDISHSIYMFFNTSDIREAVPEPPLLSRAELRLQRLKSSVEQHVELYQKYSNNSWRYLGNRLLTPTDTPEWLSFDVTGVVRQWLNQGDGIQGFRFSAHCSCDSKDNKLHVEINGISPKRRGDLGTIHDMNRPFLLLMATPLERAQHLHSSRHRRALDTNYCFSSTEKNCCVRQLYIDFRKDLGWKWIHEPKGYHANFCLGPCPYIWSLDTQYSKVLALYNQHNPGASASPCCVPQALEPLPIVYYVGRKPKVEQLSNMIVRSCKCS

What was measured:
[1] = target: human cell surface latent TGF-beta 1 expressed on FreeStyle 293-F cells (human) (UniProt P01137); assay: FACS on FreeStyle 293-F cells expressing human latent TGF-beta 1, antibody at 10 microgram/mL, PE anti-human IgG secondary, MFI
[2] = target: mouse cell surface latent TGF-beta 1 expressed on Ba/F3 cells (mouse) (UniProt P04202); assay: FACS on Ba/F3 cells expressing mouse latent TGF-beta 1, antibody at 10 microgram/mL, PE anti-human IgG secondary, MFI
[3] = target: human cell surface latent TGF-beta 1 expressed on FreeStyle 293-F cells (human) (UniProt P01137); assay: FACS, antibody at 10 microgram/mL on FreeStyle 293-F cells
[4] = target: mouse cell surface latent TGF-beta 1 expressed on Ba/F3 cells (mouse) (UniProt P04202); assay: FACS, antibody at 10 microgram/mL on Ba/F3 cells

binding [1]: binds | binding [2]: binds | binding [3]: binds | binding [4]: binds
B1: hT0947AE09-SG191 (antibody, IgG1, V domains shown)
VH: QVQLVESGGGVVQPGRSLRLSCAASGFTFSSYAMNWIRQPPGKGLEWIGYIYTSGTRYRANWARGRFTISRDNSKNTLYLQMNSLRAEDTAVYYCARGTDIYDYYYWVMDLWGPGTLVTVSS
VL: DIQMTQSPSSLSASVGDRVTITCQASQSISTYLAWYQQKPGQPPKLLIYAASTLESGVPSRFSGSGSGTDFTLTISSLQPEDFATYYCQSYSDADSVGFGQGTKVEIKR
notes: Humanized, optimized IgG1; also called hT0947AE09-5G191; hT0947A09-SG191
